According to PubChem BioAssay AID2685 (National Center for Advancing Translational Sciences (NCATS), 2010):
Several values for one entry are separate records, joined by “and”; a condition that tells them apart may be missing. Equal values may be shown once. The list shows a part of the results. The main result of the screen is listed elsewhere. These columns were measured beside it and carry no call. Compounds called inactive in the main read-out are mostly missing here. The note in brackets gives the kind of curve behind each potency; many fits are weak.

Experiment: qHTS Assay for Lipid Storage Modulators in Drosophila S3 Cells;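 as to cell number change: cells counted by Cell Tracker Red CMTPX staining in the red channel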
Conditions: BODIPY lipid droplet fluorescence, 18-24 h; for cell number change: measured here: cell count max response, cells fed with added oleic acid
Procedure, shortened: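 Laser-scanning cytometry quantifies lipid droplet accumulation (500–530 nm total intensity; droplet/cell object ratio) in oleic acid-fed (400 uM added) Drosophila S3 cells treated with a concentration series. 20 uM Triacsin C defined 100% inhibition.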

[1] = measured here: cell number channel AC50, cells fed with added oleic acid
[2] = measured here: lipid fluorescence (Fed channel) AC50, cells fed with added oleic acid

Row | SMILES | cell number change | AC50 [1] | AC50 [2]
1 | O=C1NC(=O)N(Cc2ccc(F)cc2)C(=O)/C1=C\C=C\c1ccco1 | -51.4% | 1.64 µM [falling, partial curve, poor fit] | 1.46 µM [falling, full curve]
2 | CCSc1cc(C2C(C#N)=C(N)Oc3n[nH]c(C)c32)c(C)o1 (centres undefined) |  | 6.51 µM [rising, single point] | 5.8 µM [rising, single point]
3 | COP(=O)(OC)C(NC(=O)C(C)(C)C)=C(Cl)Cl | -19.1% |  | 0.0291 µM [falling, full curve, poor fit]
4 | O=C(C1CCC(=O)N1Cc1ccccc1Cl)N1CCC2(CC1)OCCO2 (centres undefined) | -28.8% |  | 29.1 µM [falling, single point]
5 | O=C(N/N=C/c1c(O)n(-c2cccc3ccccc23)c(=O)[nH]c1=O)c1ccncc1 | 15.4% | 1.84 µM [rising, single point] | 
6 | COc1ccc2c(C)c(CC(=O)N3C[C@H]4C[C@@H](C3)c3cccc(=O)n3C4)c(=O)oc2c1C | 5.5% |  | 29.1 µM [falling, single point]
7 | CCCCc1ccc(NC2=NCCCS2)cc1 | 6.94% |  | 6.51 µM [rising, single point]
8 | COC(=O)C1=C(c2cccc(OCc3ccccc3)c2)C[C@@H]2CC[C@H]1N2C(=O)NCc1ccccc1C(F)(F)F | -11.3% |  | 
9 | O=C1COc2ccc(C(=O)COC(=O)Cc3ccccc3)cc2N1 | 25% | 1.3 µM [rising, partial curve] | 
10 | COc1cccc(NC(=O)N2CCC3(CC2)OCCO3)c1 | -20.7% |  | 
11 | CCCN1CC[C@@H]2c3cc(O)ccc3CC[C@@H]21 |  |  | 7.31 µM [falling, partial curve]
12 | Cc1cc(/C=C2\C(=O)NC(=O)N(c3ccccc3F)C2=O)c(C)n1-c1cc(C(=O)O)cc(C(=O)O)c1 | -1.77% |  | 
13 | CN1CCN(C(=O)COc2ccc(C(C)(C)C)cc2Br)CC1 | -4.88% |  | 0.0116 µM [falling, full curve, poor fit]
14 | Cc1cc2c(C(C)C)c(O)c(O)c(C=O)c2c(O)c1-c1c(C)cc2c(C(C)C)c(O)c(O)c(C=O)c2c1O | -86.9% and -88.1% | 9.2 µM [falling, partial curve] and 16.4 µM [falling, partial curve] | 9.2 µM [falling, partial curve] and 16.4 µM [falling, partial curve]
15 | Brc1ccc2c(c1)C(OC1CN3CCC1CC3)c1ccccc1CS2 (centres undefined) | 32.7% | 29.1 µM [rising, single point] | 29.1 µM [rising, single point]

Copied from the list:
cell number change, CCCCc1ccc(NC2=NCCCS2)cc1 reads 6.94%
cell number change, COc1cccc(NC(=O)N2CCC3(CC2)OCCO3)c1 reads -20.7%
